Measured values: patent US20220356235A1 (STICHTING SANQUIN BLOEDVOORZIENING, published 2022)
These are yes or no findings as the source states them, for the method shown. Some results given as binding are weak or reduced against the parent protein; the word gives no strength.

What was measured:
[1] = molecular target: T1, recombinant human FH fragment CCP 15-18 (human, UniProt P08603 868-1104); assay: competition ELISA: mAb captured on RM-19 coated plate, FH-bt mixed with 100-fold excess of unlabelled CCP 15-18
T1 construct: domain: CCP 15-18
T1 sequence (looked up): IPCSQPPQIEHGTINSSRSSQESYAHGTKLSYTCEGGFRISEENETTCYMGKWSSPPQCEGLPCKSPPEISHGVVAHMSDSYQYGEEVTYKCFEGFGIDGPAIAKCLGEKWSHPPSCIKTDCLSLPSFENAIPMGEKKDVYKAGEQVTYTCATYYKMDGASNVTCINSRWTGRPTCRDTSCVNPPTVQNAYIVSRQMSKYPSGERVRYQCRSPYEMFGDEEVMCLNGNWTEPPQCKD
Method: (§1) The location of the epitope of anti-FHR-1 mAbs was determined using recombinant human FH fragments composed of multiple CCP domains (15-18, 15-19, 18-20 or 19-20). In short, anti-FHR-1 mAbs were captured on a RM-19 coated microtiterplate to assure optimal binding conformation. Next, biotinylated FH, mixed with a 100-fold higher concentration of the indicated unlabeled recombinant FH-fragments, was incubated on the plate for 1 hour. Binding of biotinylated FH was determined by incubation with 0.01% (v/v) streptavidin conjugated with poly-HRP, in HPE for 30 min. The ELISA was further developed as described above. To determine whether the anti-FHR-1 mAbs competed with anti-FH.07 for the binding of FH, a similar set-up was used. In short, mAbs were directly coated to the plate and binding of biotinylated FH (FH-bt) in the absence or presence of a 10-fold higher concentration of indicated mAbs was assessed by ELISA as described above.

[2] = molecular target: T2, human factor H, full length (human, UniProt P08603 19-1231); assay: SPR
[3] = molecular target: T3, recombinant human FH fragment CCP 18-20 (human, UniProt P08603 1046-1231); assay: SPR
T3 construct: domain: CCP 18-20; also called fragment of FH comprised of domain 18-20
T3 sequence (looked up): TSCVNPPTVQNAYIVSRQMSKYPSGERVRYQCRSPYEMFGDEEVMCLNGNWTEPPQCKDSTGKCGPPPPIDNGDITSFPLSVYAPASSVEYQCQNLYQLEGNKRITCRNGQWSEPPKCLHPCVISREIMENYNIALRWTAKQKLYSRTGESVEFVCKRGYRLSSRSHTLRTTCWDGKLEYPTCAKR

[4] = molecular target: T2, human factor H, full length; assay: ELISA: mAb coated directly on the plate, FH-bt added without competing mAb
[5] = molecular target: T2, human factor H, full length; assay: SPR, mAb captured on ProtA or ProtG chip, full length FH flowed over; summary plot of KD
[6] = molecular target: T3, recombinant human FH fragment CCP 18-20; assay: competition ELISA: mAb captured on RM-19 coated plate, FH-bt mixed with 100-fold excess of unlabelled CCP 18-20
Method: as §1

[7] = molecular target: T2, human factor H, full length; assay: ELISA: anti-FH.07 coated directly on the plate, FH-bt added without competing mAb
[8] = molecular target: T3, recombinant human FH fragment CCP 18-20; assay: SPR, mAb captured on ProtA or ProtG chip, FH CCP 18-20 flowed over; summary plot of KD
[9] = molecular target: T4, recombinant human FH fragment CCP 15-19 (human, UniProt P08603 868-1165); assay: competition ELISA: mAb captured on RM-19 coated plate, FH-bt mixed with 100-fold excess of unlabelled CCP 15-19
T4 construct: domain: CCP 15-19
T4 sequence (looked up): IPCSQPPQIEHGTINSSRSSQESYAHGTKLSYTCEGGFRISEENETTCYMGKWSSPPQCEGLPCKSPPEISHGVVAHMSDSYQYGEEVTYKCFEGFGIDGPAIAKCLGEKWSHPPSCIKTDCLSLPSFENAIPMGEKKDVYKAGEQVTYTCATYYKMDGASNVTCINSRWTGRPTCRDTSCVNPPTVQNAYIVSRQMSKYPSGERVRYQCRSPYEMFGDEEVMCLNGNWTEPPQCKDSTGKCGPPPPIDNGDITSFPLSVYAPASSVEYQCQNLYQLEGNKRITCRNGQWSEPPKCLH
Method: as §1

[10] = molecular target: T2, human factor H, full length; assay: competition ELISA: mAb captured on RM-19 coated plate, FH-bt mixed with excess unlabelled full length FH; % of FH-bt binding without competitor
Method: as §1

Measured: binding

B1: anti-FH.07 (antibody, V domains shown)
VH: QVQLQQSGPGLVQPSQSLSITCTVSDFSLARYGVHWIRQSPGKGLEWLGVIWSGGTADYNAAFISRLNINKDNSKSQVFFKMNSLQANDTAIYYCARNFGNYAVDYWGQGTS
VL: QIVLSQSPTFLSASPGEKVTVTCRASSSVKYMHWYQQKPGASPKPWIFATSNLASGVPARFSGSGSGTSYSLTISRVEAEDAATYYCQQWSIIPPTFGNGTKLELK
binds: all assays above
